The supplement of paper PMC3334620
In all, about 33,000 sequences were measured (“E-score (-0.5 to 0.5)”: median about -0.015, highest 2% from about 0.3 on). This is one part of the list.

Target: T1, Abf1 (UniProt P14164)
T1 sequence: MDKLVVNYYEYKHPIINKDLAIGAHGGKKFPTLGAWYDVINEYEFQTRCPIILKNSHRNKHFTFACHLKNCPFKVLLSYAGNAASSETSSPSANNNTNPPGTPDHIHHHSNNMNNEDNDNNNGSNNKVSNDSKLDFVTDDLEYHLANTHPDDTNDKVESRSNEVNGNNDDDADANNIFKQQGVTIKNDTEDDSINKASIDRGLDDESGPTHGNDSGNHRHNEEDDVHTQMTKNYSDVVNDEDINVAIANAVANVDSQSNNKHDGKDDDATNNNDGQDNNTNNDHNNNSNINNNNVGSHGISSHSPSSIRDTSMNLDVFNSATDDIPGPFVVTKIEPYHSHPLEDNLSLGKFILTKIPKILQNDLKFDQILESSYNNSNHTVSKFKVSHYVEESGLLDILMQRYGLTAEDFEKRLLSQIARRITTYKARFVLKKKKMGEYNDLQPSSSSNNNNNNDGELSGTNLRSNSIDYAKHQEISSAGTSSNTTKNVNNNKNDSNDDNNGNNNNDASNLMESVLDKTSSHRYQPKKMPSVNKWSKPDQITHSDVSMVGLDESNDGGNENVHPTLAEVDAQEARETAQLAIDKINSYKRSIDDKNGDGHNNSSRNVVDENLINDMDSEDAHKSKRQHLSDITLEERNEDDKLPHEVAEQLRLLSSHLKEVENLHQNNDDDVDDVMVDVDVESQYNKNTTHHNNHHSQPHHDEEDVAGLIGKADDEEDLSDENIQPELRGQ
Assay: PBM E-score (8-mer binding enrichment) (E-score (-0.5 to 0.5)); higher = stronger / more preferred TF binding
Conditions: protein concentration: 200 nM; construct: GST-full length
Procedure, shortened: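 The E-score, a modified Wilcoxon-Mann-Whitney statistic, was computed by the Universal PBM Analysis Suite for every ungapped eight-base word pooled with its reverse complement. Scans behind it were normalised with masliner after bound GST-tagged yeast transcription factors were detected with fluorescent anti-GST. The proteins, at about 100-200 nM, had been applied to universal all-10-mer Agilent arrays made double-stranded by primer extension.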

| Sequence | PBM E-score |
| --- | --- |
| ACGAGTAA | 0.108 |
| GCTCAGTA | -0.0985 |
| CTTATAAC | 0.0537 |
| ATACAGCG | -0.0382 |
| ACCTAGAA | 0.118 |
| ACCTTATA | 0.0987 |
| CCAAACGG | -0.0255 |
| GACCCGAC | -0.236 |
| TATCATGA | 0.306 |
| GCCTTCCA | -0.22 |
| ATTTATAC | 0.224 |
| AATTGGCC | -0.17 |
| GGGGAGAA | -0.231 |
| CGCCCCCC | -0.317 |
| AGCCGGAC | -0.0562 |
| CGCAGGTA | 0.034 |
| CCGGTTAA | -0.0826 |
| CGTTACTC | 0.0875 |
| CCAATGTA | 0.0412 |
| GCACGACC | 0.0772 |
| CAAGTGTC | 0.036 |
| AACCAGAG | -0.227 |

4 entries picked at random from the list so far, as already listed:

| Sequence | PBM E-score |
| --- | --- |
| CGCAGGTA | 0.034 |
| AGCCGGAC | -0.0562 |
| CCGGTTAA | -0.0826 |
| GACCCGAC | -0.236 |

The listing continues.

| Sequence | PBM E-score |
| --- | --- |
| GTAAAGTA | 0.0846 |
| CCTTAAGA | -0.0198 |
| GAACAGAA | -0.05 |
| ATTCCCTC | -0.128 |
| AAGCGGGT | -0.0268 |
| ACCTCCTA | -0.0283 |
| CAGAATCG | 0.232 |
| ATATAGAG | 0.0248 |
| GACGGCAC | 0.048 |
| GCAGGATA | -0.128 |
| AGTTACAC | 0.0537 |
| CGACATAC | 0.238 |
| AGTTGGAT | 0.0882 |
| CTGGTGGC | -0.202 |
| CGCTAGTA | -0.057 |
| GATGTCGC | 0.182 |
| CTCATACC | 0.102 |
| GATTGGGA | -0.197 |
| GCTCAAAC | -0.0332 |
| GCGAGCAC | -0.131 |
| AGTCGCAT | -0.0565 |
| ATTATGAA | 0.0891 |

| Sequence | PBM E-score |
| --- | --- |
| AATCTCAG | -0.256 |
| GCTTCACA | -0.144 |
| ACTTCTTG | -0.0965 |
| CGTTTTCA | 0.0747 |
| GTGTTCGA | 0.0693 |
| AAACGTCC | 0.0834 |
| CCGCCCCG | -0.0814 |
| ATAAAATA | 0.207 |
| CGCTCACG | 0.0027 |
| AAGTAGAT | -0.0127 |
| ACGATGCG | 0.07 |
| GCGGCTAC | -0.281 |
| CGTCTACC | -0.05 |
| ACTGCCTG | -0.124 |
| ACGTGAAT | 0.21 |
| AACGTACG | 0.222 |
| GAACGGTA | 0.153 |
| AGGTGGAC | -0.123 |
| GTTCCGCA | -0.149 |
| CGTGAATC | 0.201 |
| GGTCCAGA | 0.0155 |
| ATCTTGAC | 0.0128 |

| Sequence | PBM E-score |
| --- | --- |
| AATTGGCA | 0.0539 |
| AGGGGTTC | -0.264 |
| CCAGTACA | -0.0881 |
| GAGGCAGA | -0.167 |
| CAATTAAC | 0.176 |
| CCCGCCGG | -0.0977 |
| ACGTAGTC | -0.025 |
| CCGCGCAC | -0.209 |
| AATCAAAA | -0.0563 |
| AAATTAGT | 0.173 |
| AAAAGCCG | -0.222 |
| ACGCAGCC | -0.118 |
| CCAGTGCC | 0.00571 |
| AGCCGTAT | 0.161 |
| GACCGGCC | -0.229 |
| ATTTTGCA | 0.142 |
| GCCGGCGA | -0.253 |
| CCTATAAA | -0.134 |
| CGGGAAAA | 0.0915 |
| AGCGGAAG | -0.121 |
